The text below walks through data of patent US12225917B2 (priority 2017, dated 2025).

A short description of the series: Feed palatability, feed and water consumption and bird productivity study (Example 2): feed intake, water intake, bodyweight, FCR. The format is in vivo, broiler chickens. The source says:
A follow-up study to determine the feed palatability, feed and water consumption and bird productivity following incorporation of a single formulation of IRP001 hemisulfate salt (unmasked) when offered to broiler chickens in-feed or in-water. The study explores the optimal treatment regime in terms of treatment start date.
Phase 1: On receipt, two hundred and seventy (270) day-old commercial broiler chickens were allocated sequentially as they are received into sixteen (16) individual floor pens, each of 16 or 17 birds, on Day 0.
Phase 2: On receipt, the ninety (90) day-old commercial broiler chickens were allocated sequentially as they are received into four (4) individual floor pens, each of 22 or 23 birds, on Day 22.
Feed intake, water intake, weight gain and mortality were used as outcome parameters.
Individual daily feed intake and individual daily water intake data by pen and then by treatment group were calculated for Phases 1 and 2 (and for the entire trial for the birds in Group/Pen 2, 15 and 16 that continue through both Phases) using figures for total feed and water provided each day to each pen divided by the number of birds in each pen. Where errors in weighing, feeding/watering or recording (or other unexplained losses of feed and water) had occurred means were adjusted by using the mean value for the same pen on the 1-2 days either side of the apparent error. Similarly, group mean bodyweights were calculated for Phase 1 using total weight/total no. birds for Day 0 and individual weights from Days 7, 14, 21, 28, 35 and 42. Total (individual) feed consumed was calculated per treatment and feed conversion ratios per treatment calculated using the expression: total (individual) feed/total (individual) weight gain.
Individual daily feed intake and individual daily water intake were statistically compared by treatment within each phase and between Pens 2 and 15/16 over both phases using a linear model:— (Parameter)˜Treatment+Day+Pen+Treatment:Day and Tibco SPOTFIRE S+ 8.2 (2010). ‘Day’ was included in the model to allow for changes over time, ‘Pen’ as each treatment consisted of 2 pens while an interaction term ‘Treatment:Day’ was included to allow for treatment x time effects. Model suitability was confirmed by inspection of residual plots; in all instances the statistical model was appropriate.

The mark [1] stands for this setting: Phase 2, chicks received day 22, IVP 2 g/kg in-feed Day 25-42, Group-Pen 19, 20.
[2] abbreviates: Phase 2 summary, IVP 1 g/L in-water D6-21 (42), Group-Pen 15, 16.
[3] abbreviates: Phase 1+2, Pen 2 untreated vs 15/16 treated in-water Day 6-42, significant at p<0.05.

Under “Phase 1, IVP 1 g/L in-water Day 1-21, Group-Pen 5, 6”, `COc1ccc2cc3[n+](cc2c1OC)CCc1cc2c(cc1-3)OCO2` [IRP001 chloride, berberine chloride] displayed an FCR of 1.50. This compound yielded a Gain (Phase 1, IVP 1 g/L in-water Day 5-21, Group-Pen 13, 14) of 0.680 kg. Under “Phase 1, IVP 1 g/L in-water Day 6-21 (42), Group-Pen 15, 16”, this compound registered an FCR of 1.40. In addition, under setting [1], the “Group mean bodyweight Day 28” value amounted to 112.4 g, the “Group mean bodyweight Day 35” value was 273.6 g and the “Group mean bodyweight Day 42” value was 614.9 g. Under setting [2], the “Group mean bodyweight Day 28” value was found to be 1.16 kg, the “Group mean bodyweight Day 35” value is given as 1.66 kg and the “Group mean bodyweight Day 42” value is 2.39 kg.

For the compound berberine hemisulfate [IRP001 sulfate], under setting [3], the “feed eaten more by untreated birds over the total trial” value was about 0.14 kg and the “water intake over the total trial” value is “untreated birds drinking more water”.
